Laboratory results taken from the supplement of paper PMC5949888.
Most values lie at the floor of the assay. Slopes are relative: functional sequences can read slightly below zero.

tested on: Saccharomyces cerevisiae PS128 hsf1 delta, HSF1(1-493) fusion; experiment: growth estimate (transactivation domain function in HSF1 fusion, heat-shock survival) (a.u. (slope of normalised read count over time)); higher = stronger growth at 37°C, i.e. more transactivation activity; conditions: library: random library

Row | Substance | growth estimate
1 | SIFYTKVMRKGTSILN | < -0.25
2 | LKADGATLPVGLWRTYPIRT | < -0.25
3 | SALA | < -0.25
4 | SMP | < -0.25
5 | LRLLKVLDRCLCERGLRGAD | < -0.25
6 | GIEPSKGNNKTLSTVI | < -0.25
7 | RAFYQIQSVYELVLSKYHEI | < -0.25
8 | GSRPSTFPPAGVTVTRSRTR | < -0.25
9 | KGGQTKVSRPPSIGLPRCSH | < -0.25
10 | DWASHNA | < -0.25
11 | KFGVSKYDDSYLLSTTFGTV | < -0.25
12 | GFLGYRYAWAFALACRLTTP | < -0.25
13 | IVDSRGVIAKC | < -0.25
14 | NFSVQECMGVL | < -0.25
15 | GLLRRGKRGKGCSQRSCH | < -0.25
16 | IDEADLWYKSNRKWVLLFQA | < -0.25
17 | IRLHFHSFVSVM | < -0.25
18 | ALGGPIS | < -0.25
19 | SSTCLGVG | < -0.25
20 | SGDVGHRCRISSYTKRDDLL | < -0.25
21 | RLERLW | < -0.25
22 | GQIPSERTQRGGKHKFAGLG | < -0.25
23 | ACLFKVAPVVRYIGLGSIRW | < -0.25
24 | RHERINVSAPASGRSGTLVR | < -0.25
25 | AYHGLPS | < -0.25

A different layout for part of the listing above:
SMP
  growth estimate: < -0.25
LRLLKVLDRCLCERGLRGAD
  growth estimate: < -0.25
GIEPSKGNNKTLSTVI
  growth estimate: < -0.25
RAFYQIQSVYELVLSKYHEI
  growth estimate: < -0.25

Next records:

Row | Substance | growth estimate
26 | AGRPG | -0.25
27 | VYLVRGLDWVTRGGGRTAGA | < -0.25
28 | GLKD | < -0.25
29 | PSYSPHGLYFSYDLAPLTRL | < -0.25
30 | LKPVWTDTFAAYGSRLWYPH | < -0.25
31 | RTRLDRKLSPGS | < -0.25
32 | RVIW | < -0.25
33 | GSVGLPGGFGWFFQSSKYGV | < -0.25
34 | CVAWRPRKIRGGLVSWD | < -0.25
35 | SGTSRRLTHSRWSFLAAYQP | < -0.25
36 | REDTACQVLVVSARGRHHPR | < -0.25
37 | SRAFALLFLARILGMVTPNE | < -0.25
38 | TCINALEASWADPAWRRAIK | < -0.25
39 | KTPHDRYLTLRVKG | < -0.25
40 | DIFPAGIT | < -0.25
41 | RNARKLKDHVHPSHQYLVSF | < -0.25
42 | SRAV | < -0.25
43 | CLESLRVVPV | -0.248
44 | ETVLETISSMPTAEIASGIT | < -0.25
45 | FGSTKK | < -0.25
46 | SGPTHKGQGIGHTSRV | < -0.25
47 | TAALHNLFVP | < -0.25
48 | GGMVRCSQLYSSALWRRSAQ | < -0.25
49 | AKFGRRMARLVPPLTMLLNG | < -0.25
50 | AESEQCKPSWCPRVPSLTKN | < -0.25

Row | Substance | growth estimate
51 | WEHDPAAPVAA | < -0.25
52 | RPAT | < -0.25
53 | GPLISWRRGVQCSHHQFYSA | < -0.25
54 | GMGLPAPRLRLLNVKSAAQG | < -0.25
55 | DNHMPDGYCGRSFGTVYDRG | < -0.25
56 | YGKVCRWESRHFEWFGKARC | < -0.25
57 | CRVPADVFTLGVRS | < -0.25
58 | RDHLIMTLGQLNQ | < -0.25
59 | MNSDEPVFRCF | < -0.25
60 | WCCLGFVALHLLG | < -0.25
61 | ASTLTLA | < -0.25
62 | VGYSGYHLEFQGAFLQCPST | < -0.25
63 | RRIYYAILCTSTYESRAAPC | < -0.25
64 | PYIIREMQRHRRFLNSAGSR | < -0.25
65 | IVSSKQVRERN | < -0.25
66 | CPGALSDNYKPVSWYRSTLL | < -0.25
67 | VDKV | -0.248
68 | RSFYSI | < -0.25
69 | GIR | < -0.25
70 | LYGIYINPVGLRNKRQTVGR | < -0.25
71 | STGRPLVVRKWSTGPRTPHT | < -0.25
72 | ISPLGTPDVSV | < -0.25
73 | CGRI | < -0.25
74 | WQIRGYLWRSPRVTRTYL | < -0.25
75 | FEVGTCLHSTRPGRRFTTHV | < -0.25

Row | Substance | growth estimate
76 | RVIDSWD | < -0.25
77 | QVLLST | < -0.25
78 | STLRALGVSRAVQMQFRPIV | < -0.25
79 | VRFEGVSRFLVRARVIRQCK | < -0.25
80 | TNF | < -0.25
81 | MDDSVLTCILGGPCSVSIVR | < -0.25
82 | IQRISRLSFSFRNDQYGGCI | < -0.25
83 | LRDGT | < -0.25
84 | SASLNFYETRQRWRM | < -0.25
85 | TGASQRSVVRPGSRESASRV | < -0.25
86 | QPGERRGGINSVGERTSSTL | < -0.25
87 | NPTGVPYVTVCETSCYLPWW | < -0.25
88 | GVERLPVGSVGFSYNYNVLY | < -0.25
89 | RSQTN | < -0.25
90 | GAQSGTRV | -0.208
91 | LLRSVRDFAVTRNS | < -0.25
92 | LSKDQVLR | < -0.25
93 | VSDTMSLSWMDLVDRQMTQR | < -0.25
94 | VVKRMVVFRTDDSLDLHWSE | < -0.25
95 | IVIGSIVVAFTSPCRYRSCH | < -0.25
96 | AYV | < -0.25
97 | SQELGR | < -0.25
98 | IILFSHSRQPNDVQQLPLSD | < -0.25
